No constants are given. Whether binding was seen depends on the method and setting. In cells and extracts the contact can be indirect. These calls come from enrichment with a bait or labelling near it, and not all partners need be listed. Where a sequence is shown, tags or fusion partners need not be part of it.
T1: ICU11-3xHA (gICU11-HA in icu11-3) (Arabidopsis) (UniProt Q3ED68)
T1 sequence: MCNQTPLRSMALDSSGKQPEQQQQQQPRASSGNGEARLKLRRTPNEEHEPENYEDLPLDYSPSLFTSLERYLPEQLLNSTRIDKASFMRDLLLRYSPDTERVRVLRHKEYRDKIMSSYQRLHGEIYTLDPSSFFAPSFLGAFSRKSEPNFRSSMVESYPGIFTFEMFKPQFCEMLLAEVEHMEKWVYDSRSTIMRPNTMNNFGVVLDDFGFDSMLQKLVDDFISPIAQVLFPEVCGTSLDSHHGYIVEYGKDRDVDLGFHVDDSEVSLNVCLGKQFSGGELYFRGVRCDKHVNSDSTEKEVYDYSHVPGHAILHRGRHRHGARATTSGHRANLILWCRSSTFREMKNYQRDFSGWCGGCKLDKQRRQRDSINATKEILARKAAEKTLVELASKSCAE

T2: ICU11-eGFP (gICU11-GFP in icu11-3) (Arabidopsis) (UniProt Q3ED68)
T2 sequence: T1 sequence

T3: GFP-CLF (35S:GFP-CLF in clf-50) (Arabidopsis) (UniProt P93831)
T3 sequence: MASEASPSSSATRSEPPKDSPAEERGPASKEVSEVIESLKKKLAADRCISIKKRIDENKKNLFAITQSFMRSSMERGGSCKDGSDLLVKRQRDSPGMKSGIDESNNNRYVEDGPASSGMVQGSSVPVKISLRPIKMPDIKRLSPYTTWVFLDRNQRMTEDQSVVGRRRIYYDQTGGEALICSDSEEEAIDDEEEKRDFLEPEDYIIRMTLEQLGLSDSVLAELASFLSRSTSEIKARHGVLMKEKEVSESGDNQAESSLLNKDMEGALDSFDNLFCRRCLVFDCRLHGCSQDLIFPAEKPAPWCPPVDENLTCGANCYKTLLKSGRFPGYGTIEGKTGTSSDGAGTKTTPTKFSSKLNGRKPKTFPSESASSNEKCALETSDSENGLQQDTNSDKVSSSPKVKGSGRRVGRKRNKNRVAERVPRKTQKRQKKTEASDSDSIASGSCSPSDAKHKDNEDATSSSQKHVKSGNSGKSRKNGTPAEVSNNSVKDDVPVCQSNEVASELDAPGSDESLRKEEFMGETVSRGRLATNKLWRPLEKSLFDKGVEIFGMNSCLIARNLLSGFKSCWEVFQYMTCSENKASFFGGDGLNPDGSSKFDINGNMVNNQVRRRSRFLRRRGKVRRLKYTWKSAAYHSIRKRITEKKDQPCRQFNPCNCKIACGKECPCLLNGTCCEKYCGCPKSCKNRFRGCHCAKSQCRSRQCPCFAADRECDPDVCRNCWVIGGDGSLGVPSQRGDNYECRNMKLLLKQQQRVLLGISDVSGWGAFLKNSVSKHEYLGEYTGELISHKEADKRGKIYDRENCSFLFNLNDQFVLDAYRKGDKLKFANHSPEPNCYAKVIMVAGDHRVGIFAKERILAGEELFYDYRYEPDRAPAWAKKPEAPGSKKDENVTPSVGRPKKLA

T4: SWN-GFP (gSWN-GFP) (Arabidopsis) (UniProt Q9ZSM8)
T4 sequence: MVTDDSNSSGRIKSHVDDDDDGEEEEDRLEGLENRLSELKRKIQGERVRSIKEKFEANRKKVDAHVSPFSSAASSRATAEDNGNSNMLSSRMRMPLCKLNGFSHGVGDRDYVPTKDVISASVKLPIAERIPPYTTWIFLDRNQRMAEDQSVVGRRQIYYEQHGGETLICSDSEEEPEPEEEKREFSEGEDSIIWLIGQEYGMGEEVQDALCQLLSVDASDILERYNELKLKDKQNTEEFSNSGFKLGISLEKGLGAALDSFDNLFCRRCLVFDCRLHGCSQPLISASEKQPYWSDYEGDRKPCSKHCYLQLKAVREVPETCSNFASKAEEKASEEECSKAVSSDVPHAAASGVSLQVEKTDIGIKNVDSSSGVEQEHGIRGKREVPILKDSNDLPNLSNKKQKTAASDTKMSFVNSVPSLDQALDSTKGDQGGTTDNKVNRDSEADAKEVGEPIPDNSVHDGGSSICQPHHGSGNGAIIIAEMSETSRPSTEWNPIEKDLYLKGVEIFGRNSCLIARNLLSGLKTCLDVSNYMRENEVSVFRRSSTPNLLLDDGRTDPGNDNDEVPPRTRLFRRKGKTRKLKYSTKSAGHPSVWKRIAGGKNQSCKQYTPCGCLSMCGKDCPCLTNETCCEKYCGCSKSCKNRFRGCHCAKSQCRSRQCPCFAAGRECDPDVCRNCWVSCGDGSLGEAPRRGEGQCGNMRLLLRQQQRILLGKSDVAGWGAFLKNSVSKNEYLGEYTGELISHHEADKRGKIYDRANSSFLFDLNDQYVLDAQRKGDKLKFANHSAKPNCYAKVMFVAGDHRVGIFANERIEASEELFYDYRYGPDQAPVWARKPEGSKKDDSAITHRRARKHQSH

T5: EMF1-3XFLAG (in emf1) (Arabidopsis) (UniProt Q9LYD9)
T5 sequence: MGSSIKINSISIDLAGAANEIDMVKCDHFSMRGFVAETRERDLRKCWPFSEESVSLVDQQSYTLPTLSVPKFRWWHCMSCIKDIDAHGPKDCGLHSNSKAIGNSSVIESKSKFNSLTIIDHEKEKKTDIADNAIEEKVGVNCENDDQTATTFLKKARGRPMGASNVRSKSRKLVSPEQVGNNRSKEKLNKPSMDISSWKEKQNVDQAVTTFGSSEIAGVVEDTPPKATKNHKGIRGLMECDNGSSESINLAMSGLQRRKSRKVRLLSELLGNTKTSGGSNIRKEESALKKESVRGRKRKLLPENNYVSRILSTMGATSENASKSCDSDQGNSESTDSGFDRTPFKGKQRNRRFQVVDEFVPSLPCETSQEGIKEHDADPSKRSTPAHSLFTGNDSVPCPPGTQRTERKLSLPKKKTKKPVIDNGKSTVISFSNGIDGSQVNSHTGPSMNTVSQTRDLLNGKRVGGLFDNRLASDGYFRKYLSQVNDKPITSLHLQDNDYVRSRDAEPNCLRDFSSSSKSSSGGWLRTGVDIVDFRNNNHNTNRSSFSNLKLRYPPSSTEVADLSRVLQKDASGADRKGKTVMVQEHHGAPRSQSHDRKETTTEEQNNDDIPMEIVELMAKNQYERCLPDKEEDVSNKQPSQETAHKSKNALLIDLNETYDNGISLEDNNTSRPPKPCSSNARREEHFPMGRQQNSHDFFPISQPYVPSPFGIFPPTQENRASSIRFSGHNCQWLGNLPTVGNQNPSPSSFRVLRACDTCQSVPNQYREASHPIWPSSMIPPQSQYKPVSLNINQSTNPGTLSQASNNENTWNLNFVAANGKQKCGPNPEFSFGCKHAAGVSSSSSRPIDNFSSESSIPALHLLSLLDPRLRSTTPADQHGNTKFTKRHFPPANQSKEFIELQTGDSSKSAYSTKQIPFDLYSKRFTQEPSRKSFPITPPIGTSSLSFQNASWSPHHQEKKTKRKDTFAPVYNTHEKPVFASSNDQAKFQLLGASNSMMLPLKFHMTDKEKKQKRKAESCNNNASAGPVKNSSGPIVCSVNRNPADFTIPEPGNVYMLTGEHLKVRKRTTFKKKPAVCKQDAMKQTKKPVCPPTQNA

B1: LIKE HETEROCHROMATIN PROTEIN1 (protein, UniProt Q946J8 1-445)
chain: MKGASGAVKKKPQVLNEAGEAETAVETVGESRKISGDGGFGSDDGGGGGGGGSGESILREIGDDRPTEDGDEEEEEDEDEDDGGDEEDEEGEGEGGQEERPKLDEGFYEIEAIRRKRVRKGKVQYLIKWRGWPETANTWEPLENLQSIADVIDAFEGSLKPGKPGRKRKRKYAGPHSQMKKKQRLTSTSHDATEKSDSSTSLNNSSLPDIPDPLDLSGSSLLNRDVEAKNAYVSNQVEANSGSVGMARQVRLIDNEKEYDPTLNELRGPVNNSNGAGCSQGGGIGSEGDNVRPNGLLKVYPKELDKNSRFIGAKRRKSGSVKRFKQDGSTSNNHTAPTDQNLTPDLTTLDSFGRIARMGNEYPGVMENCNLSQKTKIEELDITKILKPMSFTASVSDNVQEVLVTFLALRSDGKEALVDNRFLKAHNPHLLIEFYEQHLKYNRTP
B2: TELOMERE-REPEAT-BINDING (TRB) 3 (protein, UniProt Q9M2X3 1-295)
chain: MGAPKLKWTPEEETALKAGVLKHGTGKWRTILSDPVYSTILKSRSNVDLKDKWRNISVTALWGSRKKAKLALKRTPLSGSRQDDNATAITIVSLANGDVGGQQIDAPSPPAGSCEPPRPSTSVDKIILEAITSLKRPFGPDGKSILMYIEENFKMQPDMKRLVTSRLKYLTNVGTLVKKKHKYRISQNYMAEGEGQRSPQLLLEGNKENTPKPEENGVKNLTKSQVGGEVMIMGMTEKEAAAAAARAVAEAEFAMAEAEEAAREADKAEAEAEAAHIFAKAAMKAVKYRMHSQTR
B3: TELOMERE-REPEAT-BINDING (TRB) 2 (protein, UniProt Q9FJW5 1-299)
chain: MGAPKQKWTPEEEAALKAGVLKHGTGKWRTILSDTEFSLILKSRSNVDLKDKWRNISVTALWGSRKKAKLALKRTPPGTKQDDNNTALTIVALTNDDERAKPTSPGGSGGGSPRTCASKRSITSLDKIIFEAITNLRELRGSDRTSIFLYIEENFKTPPNMKRHVAVRLKHLSSNGTLVKIKHKYRFSSNFIPAGARQKAPQLFLEGNNKKDPTKPEENGANSLTKFRVDGELYMIKGMTAQEAAEAAARAVAEAEFAITEAEQAAKEAERAEAEAEAAQIFAKAAMKALKFRIRNHPW
B4: INCURVATA11 (ICU11), endogenous (protein, UniProt Q3ED68 1-397)
chain: T1 sequence

Target: T1, ICU11-3xHA (gICU11-HA in icu11-3) (Arabidopsis)
Assay: affinity purification with mass spectrometry; coIP-MS with 3xHA-tagged ICU11 as bait from Arabidopsis plants (gICU11-HA icu11-3), control icu11-3; two independent experiments; procedure in SI Appendix

Row | binding | Binder
1 | binds | B1
2 | binds | B2
3 | binds | B3

Target: T2, ICU11-eGFP (gICU11-GFP in icu11-3) (Arabidopsis)
Assay: affinity purification with mass spectrometry; coIP-MS with GFP-tagged baits from Arabidopsis plants (gICU11-GFP icu11-3; 35S:GFP-CLF clf-50; gSWN-GFP), control 35S::GFP; two independent experiments; procedure in SI Appendix

Row | binding | Binder
4 | binds | B1
5 | binds | B2
6 | binds | B3

Target: T3, GFP-CLF (35S:GFP-CLF in clf-50) (Arabidopsis)
Assay: as above

Row | binding | Binder
7 | binds | B1
8 | binds | B2
9 | binds | B3
10 | binds | B4

Target: T4, SWN-GFP (gSWN-GFP) (Arabidopsis)
Assay: as above

Row | binding | Binder
11 | binds | B1
12 | binds | B2
13 | binds | B3
14 | binds | B4

Target: T5, EMF1-3XFLAG (in emf1) (Arabidopsis)
Assay: affinity purification with mass spectrometry; coIP-MS with EMF1-3XFLAG as bait from Arabidopsis plants (EMF1-3XFLAG emf1), control Col-0; two independent experiments; procedure in SI Appendix

Row | binding | Binder
15 | binds | B1
16 | binds | B2
17 | binds | B3
18 | binds | B4

Source: PMC7368280
